Data as given in PMC8668916.
No constants are given. Whether binding was seen depends on the method and setting. Binding seen in cells or lysates may run through a third protein. Some results given as binding are weak or reduced against the parent protein; the word gives no strength.

By UniProt entry, the sequences of proteins in these tests, tags left out.
UniProt O94759: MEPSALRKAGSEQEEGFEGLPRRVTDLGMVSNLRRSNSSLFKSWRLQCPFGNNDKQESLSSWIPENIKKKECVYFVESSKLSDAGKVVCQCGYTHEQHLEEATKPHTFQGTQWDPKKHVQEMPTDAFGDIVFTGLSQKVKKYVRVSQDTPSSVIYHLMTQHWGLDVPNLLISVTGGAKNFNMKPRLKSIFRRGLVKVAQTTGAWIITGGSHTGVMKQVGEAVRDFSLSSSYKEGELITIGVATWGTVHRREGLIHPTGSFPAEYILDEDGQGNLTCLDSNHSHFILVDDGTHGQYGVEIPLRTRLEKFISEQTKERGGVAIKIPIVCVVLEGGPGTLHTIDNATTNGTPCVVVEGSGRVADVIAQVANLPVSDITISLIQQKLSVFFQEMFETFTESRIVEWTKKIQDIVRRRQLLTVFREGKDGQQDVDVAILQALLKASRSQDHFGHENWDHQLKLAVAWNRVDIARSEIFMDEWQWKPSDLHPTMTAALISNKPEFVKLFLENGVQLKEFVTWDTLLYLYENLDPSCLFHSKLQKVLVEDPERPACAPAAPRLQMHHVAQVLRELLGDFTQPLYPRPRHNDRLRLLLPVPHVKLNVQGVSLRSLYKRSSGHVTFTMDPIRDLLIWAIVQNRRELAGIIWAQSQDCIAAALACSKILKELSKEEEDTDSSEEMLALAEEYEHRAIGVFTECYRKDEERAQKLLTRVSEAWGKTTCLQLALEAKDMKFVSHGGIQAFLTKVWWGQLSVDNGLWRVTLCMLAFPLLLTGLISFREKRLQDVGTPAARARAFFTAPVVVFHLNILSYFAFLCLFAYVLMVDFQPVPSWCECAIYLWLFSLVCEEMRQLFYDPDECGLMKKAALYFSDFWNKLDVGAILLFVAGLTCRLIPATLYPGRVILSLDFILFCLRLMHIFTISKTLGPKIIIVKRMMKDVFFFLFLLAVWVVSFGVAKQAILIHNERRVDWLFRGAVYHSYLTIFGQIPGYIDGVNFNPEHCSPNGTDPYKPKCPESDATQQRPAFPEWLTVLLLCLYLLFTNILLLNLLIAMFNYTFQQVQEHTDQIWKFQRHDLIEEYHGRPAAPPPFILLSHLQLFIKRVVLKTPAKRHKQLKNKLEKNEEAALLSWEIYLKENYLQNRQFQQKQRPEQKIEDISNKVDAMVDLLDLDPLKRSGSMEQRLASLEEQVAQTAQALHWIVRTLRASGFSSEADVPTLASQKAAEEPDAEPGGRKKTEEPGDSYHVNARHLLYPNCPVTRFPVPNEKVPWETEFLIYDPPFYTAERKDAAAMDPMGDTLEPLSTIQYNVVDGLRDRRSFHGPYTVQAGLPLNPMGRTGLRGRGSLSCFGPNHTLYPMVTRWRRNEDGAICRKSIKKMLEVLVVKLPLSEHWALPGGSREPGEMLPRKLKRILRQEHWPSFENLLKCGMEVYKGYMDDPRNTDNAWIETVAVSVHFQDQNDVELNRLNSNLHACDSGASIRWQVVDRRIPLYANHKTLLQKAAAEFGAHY
UniProt P19474: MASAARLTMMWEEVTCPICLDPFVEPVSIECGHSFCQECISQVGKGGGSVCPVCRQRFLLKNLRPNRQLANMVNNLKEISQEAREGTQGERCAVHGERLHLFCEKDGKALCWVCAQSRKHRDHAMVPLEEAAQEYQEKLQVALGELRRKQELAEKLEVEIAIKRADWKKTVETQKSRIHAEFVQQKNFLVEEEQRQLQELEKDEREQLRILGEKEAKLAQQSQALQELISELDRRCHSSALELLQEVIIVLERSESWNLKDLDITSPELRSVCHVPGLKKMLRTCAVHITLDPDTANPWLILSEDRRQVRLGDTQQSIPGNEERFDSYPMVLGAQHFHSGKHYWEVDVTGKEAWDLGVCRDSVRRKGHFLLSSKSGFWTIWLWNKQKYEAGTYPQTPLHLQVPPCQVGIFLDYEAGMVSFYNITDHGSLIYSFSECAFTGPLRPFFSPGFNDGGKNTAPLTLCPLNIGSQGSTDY

Molecular target: TRPM2 (Transient receptor potential cation channel subfamily M member 2) (human (endogenous in THP-1)) (UniProt O94759)
Test: co-IP; co-immunoprecipitation in THP-1 lysates, TRPM2 antibodies used for IP, TRIM21 detected by Western blot; also in shNC and shAS (lncTRPM2-AS-silenced) lysates, where silencing gave stronger binding

binding: binds
Substance: E3 ubiquitin ligase TRIM21 (from UniProt P19474 1-475) (enzyme)
